Here are results for 2 molecules from article PMC2424011.

Results are given in words; binding and its absence hold for the method and conditions named. A result given as binding can be weak or reduced; the word gives no strength. Where a sequence is shown, tags or fusion partners need not be part of it. For part of these data: In cells and extracts the contact can be indirect.

Assay [1] has as its target T1, sFRP-3-HA protein (mouse) (UniProt P97401).
T1 sequence: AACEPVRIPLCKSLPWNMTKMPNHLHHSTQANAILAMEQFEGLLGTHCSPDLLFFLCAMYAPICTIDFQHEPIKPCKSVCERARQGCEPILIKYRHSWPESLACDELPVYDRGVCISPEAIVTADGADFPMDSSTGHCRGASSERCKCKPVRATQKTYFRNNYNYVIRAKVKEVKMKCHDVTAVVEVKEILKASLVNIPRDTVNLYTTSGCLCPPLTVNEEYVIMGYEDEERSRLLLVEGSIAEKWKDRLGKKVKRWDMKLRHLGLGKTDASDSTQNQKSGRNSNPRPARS
Nature of the assay: cross-linking; purified sFRP-3-HA incubated 1 hr at 4°C with increasing amount of recEGF, DTSSP cross-linked, Western blot with anti-HA; both purified. (In western blotting, separated proteins are transferred to a membrane and probed.)

Assay [2] has as its target T1, sFRP-3-HA protein (mouse). As to the kind of experiment: cross-linking + co-IP; 1 µg purified sFRP-3-HA with 1 µg recEGF in PBS, 2 hours at 4°C; 5 mM DTSSP 1 hr at 4°C, quenched with 20 mM Tris pH 7.5; immunoprecipitated with anti-HA affinity matrix; non-reducing SDS-PAGE, blot with anti-EGF; both purified.
The target of assay [3] is recombinant mouse EGF (mouse). As to the kind of experiment: pull-down; heparin-immobilized acrylic beads saturated overnight at 4°C with 5 µg growth factor in PBS 0.2% BSA; incubated 2 hours at room temperature with 5-50 µl sFRP-3-HA conditioned medium; 3 washes in PBS; blot with anti-HA; only the target purified.

With recombinant mouse EGF (ligand), the binding entry in assay [1] and in assay [2] was “binds” each time.

B1: sFRP-3-HA protein (protein, UniProt P97401 33-323)
chain: T1 sequence
In the case of B1, the binding result in assay [3] is given as “binds”.
